Measurements published in publication doi:10.1101/2024.07.01.601633.
No constants are given. Whether binding was seen depends on the method and setting. Binding seen in cells or lysates may run through a third protein. Some binding calls cover weakened binding; strength is not graded here.

Amino acid sequences for entries named in this document (tags omitted). Residues count along the entry.
UniProt P14314, residues 15-528: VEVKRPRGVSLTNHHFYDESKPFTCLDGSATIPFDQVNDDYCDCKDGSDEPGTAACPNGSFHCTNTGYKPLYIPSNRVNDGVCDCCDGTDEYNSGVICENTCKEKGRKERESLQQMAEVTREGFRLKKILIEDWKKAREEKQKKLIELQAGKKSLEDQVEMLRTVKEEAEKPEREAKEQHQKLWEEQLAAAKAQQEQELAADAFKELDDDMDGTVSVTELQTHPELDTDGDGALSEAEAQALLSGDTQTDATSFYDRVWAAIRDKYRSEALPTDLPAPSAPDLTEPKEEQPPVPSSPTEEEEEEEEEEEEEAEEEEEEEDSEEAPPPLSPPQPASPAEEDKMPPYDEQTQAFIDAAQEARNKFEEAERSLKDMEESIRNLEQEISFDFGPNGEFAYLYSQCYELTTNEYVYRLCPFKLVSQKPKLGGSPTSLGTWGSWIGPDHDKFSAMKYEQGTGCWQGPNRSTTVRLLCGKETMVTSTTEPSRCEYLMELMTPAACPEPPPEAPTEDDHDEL

Molecular target: PRKCSH (UniProt P14314)
Test: co-IP

- binding: binds
B1: myoclonin1 (protein, UniProt Q5JVL4 1-640)
chain: MVSNPVHGLPFLPGTSFKDSTKTAFHRSQTLSYRNGYAIVRRPTVGIGGDRLQFNQLSQAELDELASKAPVLTYGQPKQAPPADFIPAHVAFDKKVLKFDAYFQEDVPMSTEEQYRIRQVNIYYYLEDDSMSVIEPVVENSGILQGKLIKRQRLAKNDRGDHYHWKDLNRGINITIYGKTFRVVDCDQFTQVFLESQGIELNPPEKMALDPYTELRKQPLRKYVTPSDFDQLKQFLTFDKQVLRFYAIWDDTDSMYGECRTYIIHYYLMDDTVEIREVHERNDGRDPFPLLMNRQRVPKVLVENAKNFPQCVLEISDQEVLEWYTAKDFIVGKSLTILGRTFFIYDCDPFTRRYYKEKFGITDLPRIDVSKREPPPVKQELPPYNGFGLVEDSAQNCFALIPKAPKKDVIKMLVNDNKVLRYLAVLESPIPEDKDRRFVFSYFLATDMISIFEPPVRNSGIIGGKYLGRTKVVKPYSTVDNPVYYGPSDFFIGAVIEVFGHRFIILDTDEYVLKYMESNAAQYSPEALASIQNHVRKREAPAPEAESKQTEKDPGVQELEALIDTIQKQLKDHSCKDNIREAFQIYDKEASGYVDRDMFFKICESLNVPVDDSLVKELIRMCSHGEGKINYYNFVRAFSN
